{"source": "paper PMC6349854", "about": "“GLUT1 and GLUT3 involvement in anthocyanin gastric transport- Nanobased targeted approach” (Scientific Reports, 2019)", "tested_on": "Mv3glc transport through MKN-28 barrier", "experiment": "Effect of transporter inhibitors on anthocyanin transport through MKN-28 barrier", "format": "cell-based, human", "details": "inhibitor 50 µM; apical pH 5.0, basolateral pH 7.4", "method": "Transepithelial transport experiments were performed using a similar procedure from the one described elsewhere. […] Cells were cultured at 37 °C in an atmosphere of 5% CO2 and the medium was changed every two days.\nAfter this treatment, media was removed and cells were washed with Hanks’ medium (HBSS), pH 7.4 at the basolateral side and with HBSS pH 5.0 at the apical side. Anthocyanin solution (500 µM) in HBSS pH 5.0 was added to the apical side of the cells and HBSS containing 2% fetal bovine serum free of polyphenols was added to the basolateral compartment. Transepithelial transport was followed as a function of time, at 4 °C and 37 °C. Samples were taken from the basolateral side and replaced by fresh medium. The samples (150 µL) were acidified with HCl 6 M to a final concentration of 1% and frozen at −18 °C until HPLC analysis."}
{"smiles": "CN1[C@@H]2CC[C@H]1C[C@@H](OC(=O)C(CO)c1ccccc1)C2", "note": "(stereo partly shown) [Atropin]", "values": [{"measurement": "effect on Mv3glc transport", "value": "reduce the amount of Mv3glc detected in the basolateral side"}]}
